# Screening data

The results are deposited in PubChem (AID1159506; NCATS, 2015).

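Luminescence from an EWS-FLI1 target-promoter (NR0B1) reporter, set against a CMV-promoter reporter, two days after silencing single genes in TC32 Ewing sarcoma cells.
Each siRNA was applied at 20 nM.
A z-score of the log NR0B1-over-CMV signal, less the median of siRNAs with the same seed; more negative means a stronger specific loss of the NR0B1 reporter.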

The strongest results of the screen are mostly left out here.
Sequences are the guide (antisense) strand, without overhang.

- AUGCUUAUACAUCCAGUCG against TGIF2LX : seed-corrected z-score -1.824
- AUUCGUGUAAAUUUCAGGC against DNTT : seed-corrected z-score 0.1961
- UGCAGUGCAAAGUUCUUCA against MGAT4B : seed-corrected z-score -0.05052
- UAAGUUUAUUUGUGAUUCC against ETNK1 : seed-corrected z-score -0.9168
- AGUACUUUCAGUCAUGUAG against BAG4 : seed-corrected z-score -0.5309
- UCUGAGCUGAGACAUAAAC against NOL6 : seed-corrected z-score 0.8617
- ACAUGCAUGAGGAAUAUGG against FCRL5 : seed-corrected z-score -0.2286
- UGCUUGAAACCCUUGCCGC against FIZ1 : seed-corrected z-score -1.02
- UUGCGGAACUUGAACAACU against CRTAC1 : seed-corrected z-score 0.1336
- UUAGCAACAGCGGGUAACG against DNMBP : seed-corrected z-score 0.1341
- AACAUGAUAAACAGGAGUG against OR10A7 : seed-corrected z-score 0.148
- UCUCCUACGAACAACAUCC against SNTG2 : seed-corrected z-score 0.4297
- AUGAGAUUAAGGUUUGUAG against LARP1B : seed-corrected z-score 0.4215
- UUCCGGAUACCCUUUGCUC against PIAS3 : seed-corrected z-score -0.6449
- UCAUGGUCUCCAGGUAUCG against PLCXD1 : seed-corrected z-score -1.563
- UUCAUUCCGUCUGUUAAGG against CLDN5 : seed-corrected z-score -1.512
- AUUUUUGUCAGGGUGGUAC against DNAJB9 : seed-corrected z-score 0.88
- ACCUGUGAGAGUAUAAGAG against USMG5 : seed-corrected z-score -0.01672
- UUCCUUACAUGGAAUUGCC against MPP7 : seed-corrected z-score 0.4654
- AAAUCUUAUCACUUGAUCC against EBLN2 : seed-corrected z-score 0.05259
- UUCAUAAUAAUGGUCCUCC against TKT : seed-corrected z-score 0.5288
- UCAGUAUACAAACAUCUCC against RWDD2B : seed-corrected z-score -1.196
- UUCGUUGGUGCGGUGGUUC against GAREM2 : seed-corrected z-score -0.06658
- UUUGUAGUGUUCGUUGUUG against ARHGEF26 : seed-corrected z-score 0.5226
- AAACCUCUUGAUGUAAUUG against SEC13 : seed-corrected z-score 1.06
- UGAUCAGAGGCUUUCUCCC against LOC728684 : seed-corrected z-score -1.071
- UUAGAGGCAAGGAUCACGC against GDPD4 : seed-corrected z-score -0.2081
- AAAGUGUAGAUGAUGAACC against SSTR2 : seed-corrected z-score 0.6568
- AUUGGGUAGUGUUUCAGGC against TNFSF13B : seed-corrected z-score -1.542
- UUUGAUCCAAUUUAGCAGG against ITIH2 : seed-corrected z-score -0.6954
- UACGUCUAAUCUCCUCUGG against SPIRE1 : seed-corrected z-score -0.1083
- UCAUUUAAACUUGUGGUUG against XAGE1E : seed-corrected z-score 0.1531
- UCUUGGACGGGAUUGAUGG against SPANXN2 : seed-corrected z-score -1.085
- UUAGUUCCUGCUGGUACUG against C1orf189 : seed-corrected z-score -0.4804
- UCAAUAUCCACCACGUCAC against C17orf49 : seed-corrected z-score 0.1413
- AAUCUGGUUCCGCAGGUCC against ADCK4 : seed-corrected z-score -0.5815
- AAUAGUAUAUCUGCUAAUG against EEF1E1 : seed-corrected z-score -0.6436
- UGUUCUAUACCUGAUGUUC against SULT1B1 : seed-corrected z-score -0.7758
- UUACCUCCCUAGAAAAUGU against C2orf74 : seed-corrected z-score 0.4467
- AAACAGAUGAGAGGCCUUC against MAMSTR : seed-corrected z-score -0.2521
- UUUCUUGCAGGUGAUGAUU against FLJ44635 : seed-corrected z-score -0.1408
- AGAGGAAACAGAACUCGGC against COQ6 : seed-corrected z-score 0.3089
- UCUUCGUUCUCCUCGAUGG against PERM1 : seed-corrected z-score -0.3332
- UUCUGUACAAGCUCAGAUC against PSMC2 : seed-corrected z-score -1.728
- UAAAUUGUCGGUGAGAUGC against NECAB3 : seed-corrected z-score 0.1584
- UUCCUUAUCUGGAGCUACC against DYNLRB2 : seed-corrected z-score 0.958
- UCAAUACCCAGUCAAGGUG against TRY2P : seed-corrected z-score -1.101
- UCUGCCUUCAGGAUACUGG against SLC25A11 : seed-corrected z-score -0.07769
- AAUCUUAUUCUUAAGAUCC against KRT28 : seed-corrected z-score -0.486
- UGAGUCCCACCCAAUUUCC against FAM183BP : seed-corrected z-score 0.2456
- UAUAGGUAUAAGCACUACC against SLC15A1 : seed-corrected z-score -0.8923

For reference, 3 entries once more:

- UGCUUGAAACCCUUGCCGC against FIZ1 : seed-corrected z-score -1.02
- AAUCUGGUUCCGCAGGUCC against ADCK4 : seed-corrected z-score -0.5815
- UAAAUUGUCGGUGAGAUGC against NECAB3 : seed-corrected z-score 0.1584